The results in this text go back to publication PMC3989599.

Amino acid sequences for entries named in this document (tags omitted).
UniProt Q7KLW9: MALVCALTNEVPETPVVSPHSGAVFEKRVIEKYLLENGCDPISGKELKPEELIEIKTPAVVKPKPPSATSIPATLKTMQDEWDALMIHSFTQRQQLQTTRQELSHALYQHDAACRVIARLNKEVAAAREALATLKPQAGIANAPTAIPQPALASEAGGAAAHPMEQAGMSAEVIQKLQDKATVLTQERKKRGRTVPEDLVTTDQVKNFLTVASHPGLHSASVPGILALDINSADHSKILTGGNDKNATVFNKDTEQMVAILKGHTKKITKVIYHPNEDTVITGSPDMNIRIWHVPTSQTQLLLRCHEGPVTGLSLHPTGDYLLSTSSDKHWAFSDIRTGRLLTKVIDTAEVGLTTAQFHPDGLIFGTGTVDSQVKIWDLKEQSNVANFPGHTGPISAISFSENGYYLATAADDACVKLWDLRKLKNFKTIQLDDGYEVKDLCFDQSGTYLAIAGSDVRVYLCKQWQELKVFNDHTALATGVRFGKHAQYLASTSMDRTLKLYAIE

These are yes or no findings as the source states them, for the method shown. For some assays here: In cells and extracts the contact can be indirect. Some entries that bind do so weakly or less than the wild type.

Test [1] addresses Prp19 (CG5519) (Drosophila melanogaster (endogenous in embryos and ovaries)) (UniProt Q7KLW9). In words: co-IP; nuclear protein extracts of 0-3 hr wild-type (Oregon-R) embryos; 1 mg extract with rabbit anti-Prp19 (pre-immune serum as control) in HNEB2 buffer (100 mM NaCl, 2,5 mM MgCl2, 10 mM Tris-HCl pH 7,5, 0,5% Triton X-100), 1 hr at 4°C; Dynabeads Protein G; Western blot. For orientation: Immunoblotting shows a protein as a band on a membrane.

For test [2] the target is unchanged. In words: SEC; 2 mg protein extract of 0-3 hr control (FRT42B) embryos on Superose 6 10/300 GL in NB2 buffer (150 mM NaCl, 50 mM Tris-HCl pH 7,5, 2 mM EDTA, 0,01% NP-40, 1 mM DTT); fractions analysed by Western blot. In general terms: In gel filtration, larger molecules generally elute earlier.

B1: Fandango (CG6197) (protein, UniProt A1Z9G2 1-883)
chain: MVTKTIKSLNLEINFEVEDVPYEEEILRNAYSVKHWLRYIDHKAKAPNNGVNMVYERALKELPGSYKIWHNYLRTRRKQVRGKIPTDPMYEEVNSAFERALVFMHKMPRIWMDYGAFMTSQCKITRTRHVFDRALRALPITQHGRIWPLYLQFVRRFEMPETALRVYRRYLKLFPEDTEEYVDYLQEADRLDEAAQQLAHIVDNEHFVSKHGKSNHQLWNELCDLISKNPHKVHSLNVDAIIRGGLRRYTDQLGHLWNSLADYYVRSGLFDRARDIYEEAIQTVTTVRDFTQVFDEYAQFEELSLNRRMEQVAANEAATEEDDIDVELRLSRFEYLMERRLLLLNSVLLRQNPHNVHEWHKRVTLYEDKPAEIISTYTEAVQTVQPKQAVGKLHTLWVEFAKFYEANGQVEDARVVFERGTEVEYVKVEDLAAVWCEWAEMELRQQQFEAALKLMQRATAMPKRKIAYYDDTETVQARLHRSLKVWSMYADLEESFGTFKTCKAVYERIIDLKICTPQIIINYGMFLEEHNYFEEAYRAYEKGISLFKWPNVYDIWNSYLTKFLERYGGTKLERARDLFEQCLDQCPPEHAKYFYLLYAKLEEEHGLARHAMSVYDRATSAVKEDEMFDMYNIFIKKAAEIYGLPRTREIYEKAIESLPEQNMRHMCVKFAELETKLGEVDRARAIYAHCSQVCDPRITADFWQTWKEFEVRHGNEDTMREMLRIKRSVQATYNTQVNMMAAQFLSTNNGAAADAGAGAGPDAMRLLEEKARQAAAESKQKPIEKAASNIMFVRGETQGGAKDKKDTVVNPDEIDIGDSDEDDEEEDDDEENEMTNENQASAAVTKTDEEGLVMKKLRFEQKAIPAKVFGSLKPSNQGDSDGE
Consider B1, for which the binding entry in test [1] and in test [2] was “binds” each time.
